{"source": "PubChem BioAssay AID248", "about": "(DTP/NCI, 2004)", "system": "L1210 leukemia ip in BDF1 mice, survival T/C", "test": "NCI In Vivo Anticancer Drug Screen. Data for tumor model L1210 Leukemia (intraperitoneal) in B6D2F1 (BDF1) mice", "settings": "T/C endpoint: mean survival time, higher T/C = longer survival", "key": {"[1]": {"settings": "dose: 50.0 mg/kg/injection, schedule: Q01DX009 (ip), vehicle: Klucel (hydroxypropylcellulose) (HPC)"}, "[2]": {"settings": "dose: 100.0 mg/kg/injection, schedule: Q01DX009 (ip), vehicle: Klucel (hydroxypropylcellulose) (HPC)"}, "[3]": {"settings": "dose: 400.0 mg/kg/injection, schedule: Q04DX002 (ip), vehicle: Klucel (hydroxypropylcellulose) (HPC)"}, "[4]": {"settings": "dose: 100.0 mg/kg/injection, schedule: Q04DX002 (ip), vehicle: saline with Tween-80"}, "[5]": {"settings": "dose: 200.0 mg/kg/injection, schedule: Q04DX002 (ip), vehicle: saline with Tween-80"}, "[6]": {"settings": "dose: 400.0 mg/kg/injection, schedule: Q04DX002 (ip), vehicle: saline with Tween-80"}, "[7]": {"settings": "dose: 400.0 mg/kg/injection, schedule: Q01DX009 (ip), vehicle: saline with Tween-80"}}, "note": "The list shows only some results of the screen, not a fair sample: it gathers tests that were run many times, whatever their T/C, doses with no T/C, and many T/C values between a quarter and a half above the control. Other doses and runs of a compound stand elsewhere. T/C: endpoint of the treated group in % of that of the vehicle group. Some entries give survivors of the animals treated and no T/C: the source files T/C as zero there, which appears to mark a toxic dose or a test without result, not a measured value. Some survivor counts are full or nearly so, which does not show that the dose was tolerated: survival well below the control is almost never listed, so the zero probably covers shortened survival too. Survivors were counted at the toxicity check, usually on the fifth day, unless a day is given; later deaths do not show. Schedules are NCI's codes, read here as Q, the interval in days (D) or hours (H), X, the number of doses. Marks such as (2×) give the number of equal values in this list. Some doses were run more than once; their values stand side by side, smallest first. For survival time, the PubChem record calls one and a half times the control and up active, and a quarter to a half above the control has no call in these data; cut-offs in other NCI protocols can differ. Some T/C values are followed by the survivors on the day toxicity was checked, most often the fifth; without a count, all were alive then.", "data": [{"smiles": "CCN(CC)C(=S)[S][Sb]([c]1ccccc1)[c]1ccccc1", "values": [{"measurement": "survivor count", "setting": "dose: 200.0 mg/kg/injection, schedule: Q01DX001 (ip), vehicle: steroid suspending solution", "result": "1 of 6"}, {"measurement": "survivor count", "setting": "dose: 400.0 mg/kg/injection, schedule: Q01DX001 (ip), vehicle: steroid suspending solution", "result": "0 of 6"}]}, {"smiles": "COc1ccccc1N1CCN(CCc2c[nH]c3cc4c(cc23)OCO4)CC1", "values": [{"measurement": "T/C", "setting": "dose: 25.0 mg/kg/injection, schedule: Q01DX009 (ip), vehicle: Klucel (hydroxypropylcellulose) (HPC)", "result": "125 [5 of 6 alive] and 132 % of control"}, {"measurement": "T/C", "setting": "[1]", "result": "137 % of control"}, {"measurement": "survivor count", "setting": "[1]", "result": "0 of 6 and 3 of 6"}, {"measurement": "survivor count", "setting": "dose: 50.0 mg/kg/injection, schedule: Q01DX015 (ip), vehicle: carboxymethylcellulose (CMC)", "result": "0 of 6"}, {"measurement": "survivor count", "setting": "[2]", "result": "0 of 6"}, {"measurement": "survivor count", "setting": "dose: 100.0 mg/kg/injection, schedule: Q01DX015 (ip), vehicle: carboxymethylcellulose (CMC)", "result": "0 of 6"}, {"measurement": "survivor count", "setting": "dose: 200.0 mg/kg/injection, schedule: Q01DX015 (ip), vehicle: carboxymethylcellulose (CMC)", "result": "0 of 6 (2×)"}, {"measurement": "survivor count", "setting": "dose: 200.0 mg/kg/injection, schedule: Q04DX003 (ip), vehicle: Klucel (hydroxypropylcellulose) (HPC)", "result": "4 of 4"}]}, {"smiles": "O=C(O)COc1nc(Cl)c(Cl)cc1Cl", "values": [{"measurement": "survivor count", "setting": "[3]", "result": "0 of 3"}]}, {"smiles": "Cc1onc(-c2ccccc2Cl)c1C(=O)NC(=S)NC1CC(C)CC(C)(C)C1", "note": "(stereo unspecified)", "values": [{"measurement": "survivor count", "setting": "[4]", "result": "3 of 3"}, {"measurement": "survivor count", "setting": "[5]", "result": "3 of 3"}, {"measurement": "survivor count", "setting": "[6]", "result": "3 of 3"}]}, {"smiles": "CCCOCC(O)CNCCN", "note": "(stereo unspecified)", "values": [{"measurement": "T/C", "setting": "[1]", "result": "130 % of control"}]}, {"smiles": "Cc1cc(C)c(CCO)c(C)c1", "values": [{"measurement": "survivor count", "setting": "dose: 12.5 mg/kg/injection, schedule: Q01DX009 (ip), vehicle: DMSO", "result": "6 of 6"}, {"measurement": "survivor count", "setting": "dose: 100.0 mg/kg/injection, schedule: Q04DX003 (ip), vehicle: DMSO", "result": "4 of 6"}, {"measurement": "survivor count", "setting": "dose: 200.0 mg/kg/injection, schedule: Q04DX003 (ip), vehicle: DMSO", "result": "1 of 6"}, {"measurement": "survivor count", "setting": "dose: 400.0 mg/kg/injection, schedule: Q04DX003 (ip), vehicle: DMSO", "result": "1 of 6"}]}, {"smiles": "CC(=O)NC1CC2CCCN3CCCC(C1)C23", "note": "(stereo unspecified)", "values": [{"measurement": "survivor count", "setting": "dose: 100.0 mg/kg/injection, schedule: Q04DX003 (ip), vehicle: saline with Tween-80", "result": "3 of 6"}, {"measurement": "survivor count", "setting": "dose: 200.0 mg/kg/injection, schedule: Q04DX003 (ip), vehicle: saline with Tween-80", "result": "0 of 6"}, {"measurement": "survivor count", "setting": "dose: 400.0 mg/kg/injection, schedule: Q04DX003 (ip), vehicle: saline with Tween-80", "result": "0 of 6"}]}, {"smiles": "c1coc(CNc2cc(NCc3ccco3)ncn2)c1", "values": [{"measurement": "survivor count", "setting": "dose: 400.0 mg/kg/injection, schedule: Q01DX009 (ip), vehicle: Klucel (hydroxypropylcellulose) (HPC)", "result": "4 of 6"}]}, {"smiles": "Clc1cc(Cl)c(C[N+]23CN4CN(CN(C4)C2)C3)cc1Cl", "values": [{"measurement": "survivor count", "setting": "[7]", "result": "0 of 6"}]}, {"smiles": "Cn1cc([N+](=O)[O-])c2ccccc2c1=O", "values": [{"measurement": "survivor count", "setting": "dose: 400.0 mg/kg/injection, schedule: Q04DX003 (ip), vehicle: Klucel (hydroxypropylcellulose) (HPC)", "result": "0 of 6"}]}, {"smiles": "O=C(Nc1ccccc1Cl)Oc1c(Cl)cc(Cl)c2ccccc12", "values": [{"measurement": "survivor count", "setting": "[2]", "result": "3 of 6"}, {"measurement": "survivor count", "setting": "dose: 200.0 mg/kg/injection, schedule: Q04DX002 (ip), vehicle: Klucel (hydroxypropylcellulose) (HPC)", "result": "3 of 3"}, {"measurement": "survivor count", "setting": "[3]", "result": "1 of 3"}]}, {"smiles": "S=C=Nc1ccc(Cl)c(Cl)c1", "values": [{"measurement": "survivor count", "setting": "dose: 100.0 mg/kg/injection, schedule: Q01DX009 (ip), vehicle: saline with Tween-80", "result": "0 of 6"}, {"measurement": "survivor count", "setting": "dose: 200.0 mg/kg/injection, schedule: Q01DX009 (ip), vehicle: saline with Tween-80", "result": "0 of 6"}, {"measurement": "survivor count", "setting": "[7]", "result": "0 of 6"}]}, {"smiles": "Cc1cc(N)nc2ccccc12", "values": [{"measurement": "survivor count", "setting": "[4]", "result": "0 of 3"}, {"measurement": "survivor count", "setting": "[5]", "result": "0 of 3"}, {"measurement": "survivor count", "setting": "[6]", "result": "0 of 3"}]}, {"smiles": "O=C1C=C(Br)C(=O)C1(Br)Br", "values": [{"measurement": "survivor count", "setting": "dose: 150.0 mg/kg/injection, schedule: Q01DX001 (sc), vehicle: olive oil, sesame oil, peanut oil", "result": "1 of 6"}, {"measurement": "survivor count", "setting": "dose: 300.0 mg/kg/injection, schedule: Q01DX001 (sc), vehicle: olive oil, sesame oil, peanut oil", "result": "1 of 6"}]}]}
